PubChem BioAssay AID1259259 – Sanger Institute, 2017
Purpose: 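Kinome siRNA search for kinases essential alone or combined with trametinib, cetuximab or BYL719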 (primary screen). System: SW1463 human colorectal cancer cells. Reagent: siRNA pool against human genes. Challenge: DMSO vehicle, or one anchor drug: BYL719 at 1 µM, cetuximab at 5 µg/ml, or trametinib at 10 nM. Detection: 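Viability relative to control pool 2 (non-targeting) averaged over replicates, robust z-score for knock-down with no drug, and for each anchor drug the mean synergy score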. Direction: robust z-score, knock-down alone: higher = more viable cells after knock-down. Active means: 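Knock-down called essential when its robust z-score without drug falls below -3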. Calls: active = essential: viability loss from knock-down alone; inactive = no change from knock-down alone.
The whole screen tested 794 reagents; below is a random part of them. 9 of them (1.1%) count as active. 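Calls rest on knock-down alone, not drug synergy; viability values seem capped at 1.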 A number with no mark means an inactive call. Not all columns of the deposit are shown. No sequences are given here. The record does not give: the amount of reagent, the time to read-out.

After knock-down of GUCY2EP [SID152152788], the record shows robust z-score, knock-down alone -0.482.
BUB1B [SID152154799] gave robust z-score, knock-down alone 1.13.
With knock-down of PKN2 [SID152156352], the record shows robust z-score, knock-down alone -1.49.
After knock-down of RPS6KA2 [SID135620862], the record shows robust z-score, knock-down alone 0.862.
ACVR2B [SID135620907] scored robust z-score, knock-down alone -2.39.
With knock-down of SMG1 [SID152155844], the record shows robust z-score, knock-down alone 0.286.
Depletion of FYN [SID135620621] resulted in: robust z-score, knock-down alone -0.377.
Knock-down of PDXK [SID56478979] resulted in: robust z-score, knock-down alone 1.13.
ALPK1 [SID152152286] scored robust z-score, knock-down alone 1.13.
Against HIPK4 [SID135620890], the values are robust z-score, knock-down alone 1.13.

3 entries from above, sorted by “robust z-score, knock-down alone”, ascending:
ACVR2B [SID135620907] | robust z-score, knock-down alone: -2.39
SMG1 [SID152155844] | robust z-score, knock-down alone: 0.286
RPS6KA2 [SID135620862] | robust z-score, knock-down alone: 0.862

Further reagents:
After knock-down of AURKB [SID152151121], the screen gave robust z-score, knock-down alone -0.348.
Knock-down of NR2F2 [SID134309873] came out at: robust z-score, knock-down alone 1.13.
After knock-down of MAP3K14 [SID135620705], the screen gave robust z-score, knock-down alone -0.722.
Knock-down of CDK8 [SID56478602] gave: robust z-score, knock-down alone 1.13.
Against CAD [SID152152923] the deposit lists robust z-score, knock-down alone 1.13.
TLK2 [SID56479057] scored robust z-score, knock-down alone 1.13.
CSNK1G2 [SID152151854] scored robust z-score, knock-down alone 0.237.
AKT1 [SID135620599] scored robust z-score, knock-down alone -0.225.
PANK1 [SID56478765] gave robust z-score, knock-down alone 1.13.
With knock-down of PRKAB1 [SID134312708] the results were robust z-score, knock-down alone -1.21.
Against PIKFYVE [SID152154410], the entry reads robust z-score, knock-down alone 0.71.
Depletion of CKM [SID56479085] resulted in: robust z-score, knock-down alone 1.12.
Knock-down of HK3 [SID56479104] gave: robust z-score, knock-down alone -0.286.
Against NTRK1 [SID152154627] the deposit lists robust z-score, knock-down alone 0.0588.
Depletion of CAMK2G [SID56478805] came out at: robust z-score, knock-down alone 0.221.
BRWD1 [SID135622024] scored robust z-score, knock-down alone -0.689.
Silencing of BMPR1B [SID56478926] gave: robust z-score, knock-down alone 0.61.
HUS1 [SID135620649] showed robust z-score, knock-down alone 1.13.
